The values below come from publication PMC3478510, “LI-cadherin cis-dimerizes in the plasma membrane Ca^2+ independently and forms highly dynamic trans-contacts” (Cellular and Molecular Life Sciences: CMLS, 2012).

Assay [1] deals with T1, LI-cadherin C-terminally tagged with cyan (LI-CFP) or yellow (LI-YFP) fluorescent protein (UniProt Q9R100).
T1 sequence: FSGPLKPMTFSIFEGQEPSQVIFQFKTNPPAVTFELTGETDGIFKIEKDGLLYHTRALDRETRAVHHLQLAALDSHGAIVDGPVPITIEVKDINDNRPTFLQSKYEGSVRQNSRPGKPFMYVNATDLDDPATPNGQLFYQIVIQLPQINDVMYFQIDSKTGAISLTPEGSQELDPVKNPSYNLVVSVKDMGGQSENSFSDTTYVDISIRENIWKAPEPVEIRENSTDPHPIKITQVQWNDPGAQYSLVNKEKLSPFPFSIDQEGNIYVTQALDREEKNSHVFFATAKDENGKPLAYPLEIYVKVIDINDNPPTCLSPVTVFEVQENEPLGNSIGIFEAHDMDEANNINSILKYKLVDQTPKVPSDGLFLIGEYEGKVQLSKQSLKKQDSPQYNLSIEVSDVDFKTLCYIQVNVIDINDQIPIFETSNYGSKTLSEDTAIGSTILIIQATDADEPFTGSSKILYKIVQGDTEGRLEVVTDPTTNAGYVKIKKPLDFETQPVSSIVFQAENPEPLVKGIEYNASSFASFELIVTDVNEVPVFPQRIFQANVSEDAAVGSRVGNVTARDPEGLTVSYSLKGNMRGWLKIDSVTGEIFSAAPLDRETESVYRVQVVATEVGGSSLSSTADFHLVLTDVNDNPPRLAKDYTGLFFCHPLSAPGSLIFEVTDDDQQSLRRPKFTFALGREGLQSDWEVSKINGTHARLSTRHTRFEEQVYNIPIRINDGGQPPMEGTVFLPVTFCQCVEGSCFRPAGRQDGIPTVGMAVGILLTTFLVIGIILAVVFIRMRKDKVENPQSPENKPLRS
The assay can be described thus: FRET or BRET; acceptor (YFP) photobleaching FRET, CFP donor unquenching; living cotransfected HEK293 cells, cell-cell contact sites; 37 °C; 10 mM HEPES pH 7.4, 128 mM NaCl, 6 mM KCl, 1 mM MgCl2, 2 mM CaCl2; only cells with acceptor-to-donor ratio above 1.5. For orientation: In BRET a luciferase serves as donor, and the signal depends on an acceptor being close.

For assay [2], the target named is T1, LI-cadherin C-terminally tagged with cyan (LI-CFP) or yellow (LI-YFP) fluorescent protein. The assay can be described thus: FRET or BRET; FRET competition: twofold excess of untagged LI-cadherin coexpressed with LI-CFP and LI-YFP in HEK293 cells; acceptor photobleaching.
The target is the same in assay [3]. The assay can be described thus: FRET or BRET; acceptor photobleaching FRET of LI-CFP/LI-YFP in HEK293 cells after Ca2+ removal (Ca2+-free buffer, 2 mM EGTA); former cell-cell contacts and membrane regions not engaged in cell contacts.

These are yes or no findings as the source states them, for the method shown. Binding seen in cells or lysates may run through a third protein. Some entries that bind do so weakly or less than the wild type. Tags and fused reporters may be left off the sequences shown.

As to “epidermal growth factor receptor-CFP fusion protein (from UniProt P00533 25-1210)”, the binding result in assay [1] is on record as “no binding”.

B1: untagged LI-cadherin (natural protein, UniProt Q9R100 26-827, looked up)
chain: T1 sequence
notes: LI-cadherin (cadherin-17), untagged wild type; The expression construct of the untagged protein is not described in the methods; also called LIwt; wild-type LI; source: HEK293, transfected, in living cells (twofold excess, coexpressed with LI-CFP and LI-YFP)
On to B1, for which the binding entry in assay [2] and in assay [3] was “binds” each time.
